Assay results reported in US20200362303A1, “MAINTENANCE-AND-AMPLIFICATION METHOD AND DIFFERENTIATION INDUCTION METHOD FOR PRIMORDIAL GERM CELLS/PRIMORDIAL GERM CELL-LIKE CELLS” (KYOTO UNIVERSITY, priority 2017, published 2020).
At least one compound was matched to its structure with a doubt left. Some entries share one result that the patent states for a list of compounds.

How the values were obtained:
[1] = system: BV (+) d4 PGCLCs; assay: Compound library screening for PGCLC proliferation (BV fluorescence by cell analyzer); assay type: cell-based, mouse; details: for fold difference in BV fluorescence between day 1 and day 7 of culture versus mean of negative control: 10 μM, 7 days of culture, top 25 hit compounds
Procedure: d4 PGCLC was seeded by FACS on m220-5 feeders in 96-well plates and BV fluorescence was monitored by cell analyzer (Cellavista; SynenTec). Fluorescence photograph for BV was taken by Cellavista cell analyzer with the following settings: 10× objectives; exposure time: 140 μsec; gain: 4×; binning: 4×4; excitation: 500/24 nm; emission: 542/27 nm. BV fluorescence was detected using the following algorithm/attribute parameters: sensitivity: 10; region merging: 200; min. granule intensity: 50; well edge distance: 200; contrast: 1; size: 3,000; intensity: 255; roughness: 500; granularity: 100; granule intensity: 255; granule count: 10,000; longishness: 100; compactness: 1. The value of “cell nucleus” was used for the detection of BV fluorescence.
The compound library was screened at concentrations of 10 μM and 1 μM. A 96-well plate containing m220-5 cells treated with MMC was used. In each 96-well plate, negative (DMSO only) and positive (LIF) controls were assigned to both sides and a compound was added to 80 wells. 200 BV (+) d4 PGCLCs induced from BDF1-2 ESC were seeded in the wells of a 96-well plate, and BV fluorescence was measured on the Cellavista cell analyzer on day 1 of culture (c1), c3, c5 and c7. The value of “cell nucleus” was used for the detection of BV fluorescence. Since the proliferation rate of d4 PGCLC was slightly different between experiments, the values from different experiments were adjusted based on the mean value of the negative control obtained from the first experiment. For each compound, the fold difference in BV fluorescence between c1 and c7 was calculated for each compound and compounds with a fold difference value exceeding 3SD of the mean of the negative control were identified as those that potentiate PGCLC proliferation.

[2] = system: d4 PGCLC; assay: Expansion culture of d4 PGCLC on m220-5 feeder (cell number fold increase); assay type: cell-based, mouse; details: 10 μM alone, BVSC BDF1-2, SCF
Procedure: Since the m220-5 feeder treated with MMC was vulnerable to forskolin and rolipram, m220-5 cells were subcultured 3 times with both forskolin and rolipram each at 10 μM and adapted to these compounds before MMC treatment (1-2 μg/ml for 2 hr). d4 PGCLC or E9.5 PGC(BDF1×Stella-EGFP) was selected by FACS, and the cells were seeded on m220-5 cells in GMEM medium containing 10% KSR, 0.1 mM NEAA, 1 mM sodium pyruvate, 0.1 mM 2-mercaptoethanol, 100 U/ml penicillin, 0.1 mg/ml streptomycin, 2 mM L-glutamine, 2.5% FCS, 100 ng/ml SCF, 10 μM forskolin, and 10 μM rolipram. Half of the culture medium was changed every 2 days.
Expansion culture of PGC/PGCLC to investigate the combined effect of cyclosporin A (CsA) was performed as in Example [I], except that 5 μM CsA was added to the medium in addition to 10 μM forskolin and 10 μM loripram (FR10).

Row | Structure (SMILES) | fold difference in BV fluorescence between day 1 and day 7 of culture versus mean of negative control [1] | effect on proliferation of d4 PGCLC (compound alone) [2] | stimulation of PGCLC proliferation ([1]; screening at 1 μM concentration)
1 | COc1ccc(C2CNC(=O)C2)cc1OC1CCCC1 (stereo not shown) [rolipram] | greater than 3 SD |  | 
2 | COc1ccc([C@H]2CNC(=O)C2)cc1OC1CCCC1 [S-(+)-rolipram] | greater than 3 SD |  | 
3 | COc1ccc([C@]2(C#N)CC[C@@H](C(=O)O)CC2)cc1OC1CCCC1 [cilomilast] | greater than 3 SD |  | 
4 | COc1cccc(Nc2c(C(N)=O)cnc3c(C)cc(S(=O)(=O)c4cccc(C(=O)N(C)C)c4)cc23)c1 [GSK256066] | greater than 3 SD |  | 
5 | CC1=C(/C=C/C(C)=C/C=C/C(C)=C/C(=O)O)C(C)(C)CCC1 [RA, all trans retinoic acid] | greater than 3 SD |  | 
6 | CC(C)C(=O)c1c(C(C)C)nn2ccccc12 [ibudilast] | greater than 3 SD |  | 
7 | C=C[C@@]1(C)CC(=O)[C@]2(O)[C@@]3(C)[C@@H](O)CCC(C)(C)[C@@H]3[C@H](O)[C@H](OC(C)=O)[C@@]2(C)O1 [forskolin] | greater than 3 SD | relatively mild | potent stimulants of PGCLC proliferation
8 | C/C(=C\c1ccc(C(=O)O)cc1)c1ccc2c(c1)C(C)(C)CCC2(C)C [TTNPB] | greater than 3 SD |  | 
